# According to PMC7819943, “Rice protein-binding microarrays: a tool to detect cis-acting elements near promoter regions in rice”:
# By UniProt entry, the sequences of proteins in these tests, tags left out.
# UniProt Q0JBA9, entry or part of it: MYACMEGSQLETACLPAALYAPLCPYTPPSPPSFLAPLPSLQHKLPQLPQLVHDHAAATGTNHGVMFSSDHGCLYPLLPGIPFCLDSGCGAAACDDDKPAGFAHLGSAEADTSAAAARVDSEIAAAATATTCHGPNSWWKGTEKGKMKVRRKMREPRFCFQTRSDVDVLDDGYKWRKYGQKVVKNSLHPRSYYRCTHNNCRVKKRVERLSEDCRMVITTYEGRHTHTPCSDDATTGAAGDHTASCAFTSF
# The other results are listed elsewhere or left out.
# Target: OsWRKY34 (Oryza sativa, UniProt Q0JBA9 1-250)
# Assay: protein-binding microarray (RPBM); PBS, 2% BSA, 51.3 ng/ul salmon testes DNA, 50 uM zinc acetate, 200 nM TF, 25 C, 1 h; high values mean tight binding
# Conditions: protein: recombinant; tags: N-terminal polyhistidine and DsRed monomer fusion (pET32a); label: CyDye5-dUTP incorporated in the synthesized complementary strand; 3' TTTTT single-stranded linker to array surface; dsDNA, one strand shown
# Method in brief: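 Transcription factors were each fused at the N-terminus to a polyhistidine tag plus DsRed and expressed in E. coli BL21-CodonPlus before Ni–NTA purification. Binding to a double-stranded custom Agilent array was carried out with 200 nM protein at 25 °C for 1 h in PBS, 2% BSA, salmon testes DNA and 50 µM zinc acetate. The binding signal is per-feature fluorescence intensity, in arbitrary units, on an Axon 4000B scanner.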
row,Sequence,binding signal
1,CTGGTAGTTTGCTGAGCTGCTCATATATATATTCATGCTACGGAGTCACCTAGTGCAG,8470 fluorescence intensity (a.u.)
2,AGTATCCAGCTTGCCACTGGTCCGCTTGTCAGTTGTCTCCCGGAGTCACCTAGTGCAG,8220 fluorescence intensity (a.u.)
3,ATCCGCCACTTCGCATGCACGCCATCCTCGCCTCGCCGAGCGGAGTCACCTAGTGCAG,9930 fluorescence intensity (a.u.)
4,CAAAAGCGTCGTCCTCGTACTCCACGCGCGCATCGGAATCCGGAGTCACCTAGTGCAG,8430 fluorescence intensity (a.u.)
5,GCAGATGCGGGCTTGTCTGATTGTTCCCTCGCACTGTTTCCGGAGTCACCTAGTGCAG,8580 fluorescence intensity (a.u.)
6,AGATTTATACTATAATTATATTTGACATGTTTTTTTACCTCGGAGTCACCTAGTGCAG,9240 fluorescence intensity (a.u.)
7,TCCTTTCATATTCCGCGTATATCATAGGGCCTGTTCACTTCGGAGTCACCTAGTGCAG,11200 fluorescence intensity (a.u.)
8,AAATACTTTCCATTTTTCCATCTTGCTTGTCTCTTTTTAACGGAGTCACCTAGTGCAG,11200 fluorescence intensity (a.u.)
9,GGGATATATCCTTTGACCGGTCAAACCTCGCGACTTCTTCCGGAGTCACCTAGTGCAG,18800 fluorescence intensity (a.u.)
10,TCTCGTTTTACGAATCTGATTCTAATTTCGCGAGGATATTCGGAGTCACCTAGTGCAG,8380 fluorescence intensity (a.u.)
11,TGTTGTCGTCGTCCCTCTTCCTTTCCTTTCCTTTCCTTGCCGGAGTCACCTAGTGCAG,8870 fluorescence intensity (a.u.)
12,CCGTGGGTATTTCCGTCATTTCGCGCCTAAATCTCACTCCCGGAGTCACCTAGTGCAG,11300 fluorescence intensity (a.u.)
13,CAACCATTTCCCGCTATAACTACCCCACTCCACCTTCTGTCGGAGTCACCTAGTGCAG,8350 fluorescence intensity (a.u.)
14,GGAGCTCGCCTACGACATCGAGGACTGCATAGATCTGTTCCGGAGTCACCTAGTGCAG,8230 fluorescence intensity (a.u.)
15,TCTTACATTATGTTGTTGTACGCGCTTTTAGTATTACTAGCGGAGTCACCTAGTGCAG,8160 fluorescence intensity (a.u.)
16,GGTTCGTTCGTTCGCCGCTAGTTGCCACCTTCGCCGCGGCCGGAGTCACCTAGTGCAG,15200 fluorescence intensity (a.u.)
17,GCGGCGGTGGGTGGCGGGGCAGCAGACGAGCAAGAAAGAGCGGAGTCACCTAGTGCAG,9530 fluorescence intensity (a.u.)
18,TGTTTCGCTCTAGCTCTATCCCTGCCCATGCTTCACCTAGCGGAGTCACCTAGTGCAG,8860 fluorescence intensity (a.u.)
19,GGTATTCCAAGATCTCATCCGACTTTGTTTGATCCAGCATCGGAGTCACCTAGTGCAG,11800 fluorescence intensity (a.u.)
20,GCTACTGTTCGCGCTTTGTACTATGGTAGGTAGGGTTTTCCGGAGTCACCTAGTGCAG,8420 fluorescence intensity (a.u.)
21,TAACTCTGTTGACTTTTGAATGACTAGCAAAGTTAGTACTCGGAGTCACCTAGTGCAG,10900 fluorescence intensity (a.u.)

row,Sequence,binding signal
1,TCATACGAGATGTCATCCTGTACTGTCCATGTTTGACTTCCGGAGTCACCTAGTGCAG,10600 fluorescence intensity (a.u.)
2,CCCCGCAATATCTCCTCCATTCTTGGATTCACCTCAACCTCGGAGTCACCTAGTGCAG,8560 fluorescence intensity (a.u.)
3,AAAAAAGCAGTACACGTCGTTGTCTGGACATGTTGTGCACCGGAGTCACCTAGTGCAG,8240 fluorescence intensity (a.u.)
4,ATCGTCTCGTCTTCCCACCAGCACCTGCCGCGCTCTCCCCCGGAGTCACCTAGTGCAG,10200 fluorescence intensity (a.u.)
5,TATATTATGTCATATGCATTATCATATCTTTTGTGCAGACCGGAGTCACCTAGTGCAG,9250 fluorescence intensity (a.u.)
6,CTAGTTTTGTGGTTGGAGGTTGTGAATCATACTCGGACGACGGAGTCACCTAGTGCAG,10200 fluorescence intensity (a.u.)
7,CGCGTGTGTGATTGCCTTTTGCTAGCCAAATTGTGGTTTTCGGAGTCACCTAGTGCAG,12400 fluorescence intensity (a.u.)
8,GTTTTTCTTTGATCTTCTCAAGTCTCGTGCAAGCAACGACCGGAGTCACCTAGTGCAG,9640 fluorescence intensity (a.u.)
9,CCATCATTATCAAATATTTACTGTAACATCACATTATCAACGGAGTCACCTAGTGCAG,8320 fluorescence intensity (a.u.)
10,CCCCTTCGTCGTCTTCGTCATCGTCTCCAACCTCCGATTTCGGAGTCACCTAGTGCAG,8370 fluorescence intensity (a.u.)
11,TGACTATAATTTTGCCCTTCTAGTTTTTTTTATATATAATCGGAGTCACCTAGTGCAG,10600 fluorescence intensity (a.u.)
12,GGGTCGCAAACTTCCAGATTTAACTCTCTCCATTTTGGTGCGGAGTCACCTAGTGCAG,8610 fluorescence intensity (a.u.)
13,GCCATTTCCCCACGTTGATGTTGACTGTTTACTGTTTAGACGGAGTCACCTAGTGCAG,8420 fluorescence intensity (a.u.)
14,AAGGCGGGAGGTTGAGAGAGAGATAAGGGAGAGAGAGGGGCGGAGTCACCTAGTGCAG,8120 fluorescence intensity (a.u.)
15,CCCACGTATTTTTTTTAATCTTTTTTGTTGACTAGGATGCCGGAGTCACCTAGTGCAG,8390 fluorescence intensity (a.u.)
16,CTCTCACTCATCTCCCTGGGCAGGCTGGCCGGCGGCGGGGCGGAGTCACCTAGTGCAG,10200 fluorescence intensity (a.u.)
17,TTCCTGTTTCTTTTGTTTTTTTCTCTCTTTCACCTCCCTTCGGAGTCACCTAGTGCAG,11200 fluorescence intensity (a.u.)
18,AGTATGTTTTATGTTCTTATGGTGTCTAGAAAATGAGTTACGGAGTCACCTAGTGCAG,10200 fluorescence intensity (a.u.)
19,ACCGGGCTCTCTGATAACTTCGATGCCACTGCTTTTGCTCCGGAGTCACCTAGTGCAG,8460 fluorescence intensity (a.u.)
20,CTCTGGGGTTGGTGGTAGCTTGCTGTCTGCTCTGTTTATGCGGAGTCACCTAGTGCAG,11300 fluorescence intensity (a.u.)
21,AAGATCTCCCAGGCCTCGTGTTTTACGTCAACTGGTTGTACGGAGTCACCTAGTGCAG,8270 fluorescence intensity (a.u.)

# Another view of some results above:
row	Sequence	binding signal
14	GGAGCTCGCCTACGACATCGAGGACTGCATAGATCTGTTCCGGAGTCACCTAGTGCAG	8230 fluorescence intensity (a.u.)
8	GTTTTTCTTTGATCTTCTCAAGTCTCGTGCAAGCAACGACCGGAGTCACCTAGTGCAG	9640 fluorescence intensity (a.u.)
9	CCATCATTATCAAATATTTACTGTAACATCACATTATCAACGGAGTCACCTAGTGCAG	8320 fluorescence intensity (a.u.)
